Data from paper PMC7031342.
No constants are given. Whether binding was seen depends on the method and setting. Binding seen in cells or lysates may run through a third protein. Some entries that bind do so weakly or less than the wild type.

By UniProt entry, the sequences of proteins in these tests, tags left out. Where a name states a change or a piece, a line headed by the entry shows the natural chain unless it says otherwise. Chains listed by the source or under a name are the forms on record and can include a tag or linker.
UniProt Q00765: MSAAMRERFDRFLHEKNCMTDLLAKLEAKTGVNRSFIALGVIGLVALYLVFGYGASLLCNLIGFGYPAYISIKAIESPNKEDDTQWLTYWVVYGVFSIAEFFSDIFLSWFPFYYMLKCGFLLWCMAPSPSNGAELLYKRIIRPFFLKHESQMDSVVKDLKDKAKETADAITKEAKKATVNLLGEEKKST
Myc-RTN4 (Nogo-B) (Q9NQC3-2, form named): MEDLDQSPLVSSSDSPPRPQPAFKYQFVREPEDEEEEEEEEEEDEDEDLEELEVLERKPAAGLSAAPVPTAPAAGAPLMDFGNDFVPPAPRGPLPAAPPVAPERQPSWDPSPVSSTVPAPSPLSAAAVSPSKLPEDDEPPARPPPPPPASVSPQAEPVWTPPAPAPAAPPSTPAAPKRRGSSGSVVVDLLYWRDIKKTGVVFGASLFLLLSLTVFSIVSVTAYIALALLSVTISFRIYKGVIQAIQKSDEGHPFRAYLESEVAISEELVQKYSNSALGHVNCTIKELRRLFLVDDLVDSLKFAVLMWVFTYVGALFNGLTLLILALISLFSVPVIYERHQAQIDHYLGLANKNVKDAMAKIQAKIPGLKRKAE
UniProt Q8BMK4: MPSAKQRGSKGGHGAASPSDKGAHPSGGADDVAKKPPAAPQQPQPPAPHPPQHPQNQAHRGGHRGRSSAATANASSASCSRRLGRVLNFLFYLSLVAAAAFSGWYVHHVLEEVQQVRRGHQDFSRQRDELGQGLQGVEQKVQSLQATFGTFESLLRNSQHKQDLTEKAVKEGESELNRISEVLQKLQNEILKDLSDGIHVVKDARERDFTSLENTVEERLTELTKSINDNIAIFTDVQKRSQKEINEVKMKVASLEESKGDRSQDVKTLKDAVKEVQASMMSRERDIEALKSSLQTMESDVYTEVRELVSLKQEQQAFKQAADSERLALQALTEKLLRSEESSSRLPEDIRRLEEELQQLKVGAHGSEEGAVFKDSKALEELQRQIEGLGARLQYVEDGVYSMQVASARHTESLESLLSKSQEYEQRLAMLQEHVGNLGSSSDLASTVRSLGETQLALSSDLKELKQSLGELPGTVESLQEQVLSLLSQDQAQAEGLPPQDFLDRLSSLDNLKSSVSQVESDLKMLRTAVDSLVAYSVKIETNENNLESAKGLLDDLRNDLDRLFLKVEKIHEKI
UniProt Q07065: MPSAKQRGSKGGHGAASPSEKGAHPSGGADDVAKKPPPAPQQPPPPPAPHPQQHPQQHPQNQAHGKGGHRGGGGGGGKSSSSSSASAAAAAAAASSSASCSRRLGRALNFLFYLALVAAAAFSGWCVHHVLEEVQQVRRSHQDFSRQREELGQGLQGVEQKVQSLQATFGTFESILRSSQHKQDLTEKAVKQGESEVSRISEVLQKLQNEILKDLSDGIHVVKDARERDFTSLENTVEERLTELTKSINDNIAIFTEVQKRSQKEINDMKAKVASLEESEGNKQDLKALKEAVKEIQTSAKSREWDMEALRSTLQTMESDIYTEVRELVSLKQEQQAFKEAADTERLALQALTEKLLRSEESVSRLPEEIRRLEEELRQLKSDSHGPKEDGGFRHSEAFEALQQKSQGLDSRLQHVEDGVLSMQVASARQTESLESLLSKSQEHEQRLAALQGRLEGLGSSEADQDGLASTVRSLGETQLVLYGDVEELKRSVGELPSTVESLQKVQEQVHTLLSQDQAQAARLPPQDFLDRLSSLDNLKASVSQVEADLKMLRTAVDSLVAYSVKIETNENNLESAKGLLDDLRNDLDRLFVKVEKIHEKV
UniProt Q60870: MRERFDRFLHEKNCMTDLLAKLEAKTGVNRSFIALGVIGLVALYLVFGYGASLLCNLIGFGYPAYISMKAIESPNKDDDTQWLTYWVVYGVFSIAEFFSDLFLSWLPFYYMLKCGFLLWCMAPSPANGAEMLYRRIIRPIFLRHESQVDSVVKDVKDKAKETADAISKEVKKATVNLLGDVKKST

Columns and labels:
[1] = target: CnVA-tagged (StrepII-6xHis, 3xFlag) REEP5 (human) (UniProt Q00765); test: pull-down; nickel-His purification of CnVA-REEP5 from transfected HEK293 cells; immunoblots of the eluate
[2] = target: REEP5-V5-6xHis (human) (UniProt Q00765); test: co-IP; HEK293 cells overexpressing CnVA-REEP5 and REEP5-V5-6xHis; immunoprecipitation with anti-V5 antibody, immunoblot
[3] = target: Myc-RTN4 (Nogo-B) (UniProt Q9NQC3); test: co-IP; HEK293 cells cotransfected with CnVA-REEP5 and Myc-RTN4 (Nogo-B); immunoprecipitation with anti-REEP5 or anti-Nogo-A/B antibody, immunoblot
[4] = target: CnVA-tagged (StrepII-6xHis, 3xFlag) REEP5 (human) (UniProt Q00765); test: as above
[5] = target: T1, Nogo-A (mouse heart) (mouse (endogenous in cardiac microsomes)) (UniProt Q99P72); test: co-IP; adult mouse cardiac (ventricular) microsomes; immunoprecipitation with anti-REEP5, anti-RTN4/Nogo-A/B, anti-ATL3 or anti-CKAP4 antibody, immunoblot
T1 sequence: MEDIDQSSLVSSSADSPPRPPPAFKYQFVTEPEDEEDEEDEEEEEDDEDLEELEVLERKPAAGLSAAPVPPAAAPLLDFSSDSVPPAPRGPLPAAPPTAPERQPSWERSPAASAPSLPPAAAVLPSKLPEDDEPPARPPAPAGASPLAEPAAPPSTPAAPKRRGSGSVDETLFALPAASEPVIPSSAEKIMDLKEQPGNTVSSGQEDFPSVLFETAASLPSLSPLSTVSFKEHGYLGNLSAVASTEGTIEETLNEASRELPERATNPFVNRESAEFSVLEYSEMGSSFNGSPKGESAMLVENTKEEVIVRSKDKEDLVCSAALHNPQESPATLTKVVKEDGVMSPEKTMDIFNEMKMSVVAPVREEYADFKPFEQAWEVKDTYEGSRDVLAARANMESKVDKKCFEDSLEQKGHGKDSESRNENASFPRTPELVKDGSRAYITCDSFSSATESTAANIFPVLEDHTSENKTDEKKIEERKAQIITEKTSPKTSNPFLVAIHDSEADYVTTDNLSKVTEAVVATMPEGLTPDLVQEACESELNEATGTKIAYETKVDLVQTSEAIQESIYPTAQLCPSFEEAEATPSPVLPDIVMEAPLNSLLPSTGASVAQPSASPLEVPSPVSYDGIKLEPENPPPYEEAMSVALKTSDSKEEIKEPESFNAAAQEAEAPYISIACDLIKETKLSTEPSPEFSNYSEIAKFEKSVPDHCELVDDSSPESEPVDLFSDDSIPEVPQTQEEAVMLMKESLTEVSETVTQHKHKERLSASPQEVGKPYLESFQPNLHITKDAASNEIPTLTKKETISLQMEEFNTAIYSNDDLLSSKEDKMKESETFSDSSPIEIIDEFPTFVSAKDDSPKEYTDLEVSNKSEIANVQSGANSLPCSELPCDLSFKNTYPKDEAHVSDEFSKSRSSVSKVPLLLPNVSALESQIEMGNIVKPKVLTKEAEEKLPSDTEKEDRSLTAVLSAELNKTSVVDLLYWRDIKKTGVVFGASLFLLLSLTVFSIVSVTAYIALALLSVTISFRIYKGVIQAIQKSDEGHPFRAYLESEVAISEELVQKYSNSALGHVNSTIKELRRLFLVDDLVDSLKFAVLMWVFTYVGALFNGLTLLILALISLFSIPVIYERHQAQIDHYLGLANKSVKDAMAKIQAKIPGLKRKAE

[6] = target: T2, Nogo-B (mouse heart) (mouse (endogenous in cardiac microsomes)) (UniProt Q99P72); test: as above
T2 sequence: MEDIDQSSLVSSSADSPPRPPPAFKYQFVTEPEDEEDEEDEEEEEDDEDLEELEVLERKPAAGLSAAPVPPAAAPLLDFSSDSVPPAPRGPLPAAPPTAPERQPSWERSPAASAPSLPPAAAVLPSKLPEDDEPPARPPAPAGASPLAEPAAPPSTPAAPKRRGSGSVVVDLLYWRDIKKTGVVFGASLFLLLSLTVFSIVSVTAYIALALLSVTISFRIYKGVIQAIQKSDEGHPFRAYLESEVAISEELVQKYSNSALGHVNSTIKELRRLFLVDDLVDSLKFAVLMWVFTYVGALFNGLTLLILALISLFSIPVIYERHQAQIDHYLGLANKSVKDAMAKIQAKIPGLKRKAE

[7] = target: CKAP4 (mouse heart) (mouse (endogenous in cardiac microsomes)) (UniProt Q8BMK4); test: as above
[8] = target: T3, ATL3 (mouse heart) (mouse (endogenous in cardiac microsomes)) (UniProt Q91YH5); test: as above
T3 sequence: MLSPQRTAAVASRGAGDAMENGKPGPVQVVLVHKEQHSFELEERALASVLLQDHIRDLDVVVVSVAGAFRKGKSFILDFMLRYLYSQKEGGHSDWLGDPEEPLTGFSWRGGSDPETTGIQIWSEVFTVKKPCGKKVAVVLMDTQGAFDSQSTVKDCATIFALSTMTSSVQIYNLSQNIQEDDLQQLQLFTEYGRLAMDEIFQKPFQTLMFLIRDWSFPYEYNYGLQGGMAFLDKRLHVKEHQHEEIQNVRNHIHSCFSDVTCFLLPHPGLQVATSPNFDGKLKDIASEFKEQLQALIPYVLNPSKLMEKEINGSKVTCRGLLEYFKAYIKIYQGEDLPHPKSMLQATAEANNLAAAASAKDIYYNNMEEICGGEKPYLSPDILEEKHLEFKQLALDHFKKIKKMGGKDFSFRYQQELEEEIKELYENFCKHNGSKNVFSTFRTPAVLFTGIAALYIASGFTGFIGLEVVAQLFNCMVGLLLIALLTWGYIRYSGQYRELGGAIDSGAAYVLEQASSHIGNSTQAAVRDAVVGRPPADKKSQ

CKAP4 (HEK293) (from UniProt Q07065 1-602)
binding [1]: binds

CnVA-tagged (StrepII-6xHis, 3xFlag) REEP5 (from UniProt Q00765-1 1-189)
binding [2]: binds | binding [3]: binds

Myc-RTN4 (Nogo-B) (from UniProt Q9NQC3-2 1-373)
binding [4]: binds

endogenous mouse REEP5 (from UniProt Q60870 1-185)
binding [5]: binds | binding [6]: binds | binding [7]: binds | binding [8]: binds
